Values of other authors in patent publication US20040132795A1, “Methods to screen and treat individuals with glaucoma or the propensity to develop glaucoma” (priority 2001, published 2004).
For at least one compound, name, drawing or mass did not settle the structure.

System: human trabecular meshwork (HTM) cells
Details: 100 nM dexamethasone exposure, between 1 and 3 weeks; cited from earlier work

SMILES: C[C@@H]1C[C@H]2[C@@H]3CCC4=CC(=O)C=C[C@]4(C)[C@@]3(F)[C@@H](O)C[C@]2(C)[C@@]1(O)C(=O)CO [dexamethasone]
- Protein inductions in HTM cells (GIP-55, GIP-66 markers): produced major new protein inductions
